The other results are listed elsewhere or left out.
Legend:
Assay in all cases: log2 fold change, soluble protein after heating vs DMSO (PISA); higher = thermal stabilisation; K562 lysate, 10 uM; active = over 0.2 and 3.5 SD of the protein, either way, in both replicates (recomputed)
[1] = compound: C#Cc1cccc(Nc2ncnc3cc(OCCOC)c(OCCOC)cc23)c1 [erlotinib]
Procedure, shortened: (§1)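 Dounce homogenisation of K562 pellets in PBS pH 7.4 with 1 mM MgCl2 produced a crude extract, used at 1 mg/mL protein. Exposure to 10 μM compound lasted 30 min, and aliquots were then heated for 3 min across 48°C-58°C, pooled and brought to 0.5% NP-40 at 4°C. The supernatant after 21,000xg for 90 min was quantified by TMTpro 16plex LC-MS/MS with channel sums equalised. Duplicate values are given as log-two fold change in thermal stability relative to solvent controls.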

Protein sequences, listed by entry. Tags and fused reporters are not part of them. Lines headed by an entry give the natural chain unless they say otherwise; changes in a name come on top.
UniProt Q6IN85: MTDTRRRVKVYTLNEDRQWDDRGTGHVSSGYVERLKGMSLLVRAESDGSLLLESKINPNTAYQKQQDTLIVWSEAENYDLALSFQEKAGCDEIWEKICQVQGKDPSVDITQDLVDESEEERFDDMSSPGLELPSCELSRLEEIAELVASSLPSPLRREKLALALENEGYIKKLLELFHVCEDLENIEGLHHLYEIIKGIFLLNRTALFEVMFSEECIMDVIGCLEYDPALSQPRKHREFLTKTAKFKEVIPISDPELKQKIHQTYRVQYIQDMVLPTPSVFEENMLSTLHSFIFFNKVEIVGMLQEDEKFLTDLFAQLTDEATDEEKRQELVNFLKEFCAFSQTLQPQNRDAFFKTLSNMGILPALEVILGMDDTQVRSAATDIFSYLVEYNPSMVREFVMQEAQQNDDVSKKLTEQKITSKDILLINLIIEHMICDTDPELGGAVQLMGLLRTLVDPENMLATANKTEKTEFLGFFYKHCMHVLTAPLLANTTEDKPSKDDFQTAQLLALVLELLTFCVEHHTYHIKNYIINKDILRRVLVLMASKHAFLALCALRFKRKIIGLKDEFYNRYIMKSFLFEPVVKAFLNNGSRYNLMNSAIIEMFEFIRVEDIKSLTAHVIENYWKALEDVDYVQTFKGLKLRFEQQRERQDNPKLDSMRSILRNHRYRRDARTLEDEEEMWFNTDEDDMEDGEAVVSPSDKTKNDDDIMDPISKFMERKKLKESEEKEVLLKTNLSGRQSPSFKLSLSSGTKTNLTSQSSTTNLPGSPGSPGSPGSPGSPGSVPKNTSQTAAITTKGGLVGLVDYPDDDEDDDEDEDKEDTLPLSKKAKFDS
UniProt O75569: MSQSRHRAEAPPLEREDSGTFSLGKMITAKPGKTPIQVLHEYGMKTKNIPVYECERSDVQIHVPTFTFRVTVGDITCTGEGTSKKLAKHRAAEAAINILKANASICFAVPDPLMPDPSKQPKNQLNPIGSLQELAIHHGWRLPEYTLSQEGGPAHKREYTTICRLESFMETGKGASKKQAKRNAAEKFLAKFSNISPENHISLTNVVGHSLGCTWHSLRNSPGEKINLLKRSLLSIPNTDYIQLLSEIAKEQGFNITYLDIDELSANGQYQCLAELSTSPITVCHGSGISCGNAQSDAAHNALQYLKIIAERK
UniProt K7ELL7: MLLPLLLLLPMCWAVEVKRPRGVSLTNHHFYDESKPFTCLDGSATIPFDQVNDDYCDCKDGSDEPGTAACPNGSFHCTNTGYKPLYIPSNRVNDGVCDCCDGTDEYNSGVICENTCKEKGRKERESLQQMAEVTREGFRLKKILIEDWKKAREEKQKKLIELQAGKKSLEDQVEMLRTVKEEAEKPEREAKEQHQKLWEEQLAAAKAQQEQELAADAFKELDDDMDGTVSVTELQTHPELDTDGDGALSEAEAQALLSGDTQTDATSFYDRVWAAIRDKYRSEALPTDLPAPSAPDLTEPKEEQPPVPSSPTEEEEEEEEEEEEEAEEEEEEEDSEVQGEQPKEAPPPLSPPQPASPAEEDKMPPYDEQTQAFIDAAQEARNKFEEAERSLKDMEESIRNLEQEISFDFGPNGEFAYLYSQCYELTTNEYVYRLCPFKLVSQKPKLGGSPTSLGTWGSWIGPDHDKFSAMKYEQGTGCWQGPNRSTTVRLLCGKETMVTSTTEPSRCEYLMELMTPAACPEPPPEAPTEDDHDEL
UniProt Q96C90: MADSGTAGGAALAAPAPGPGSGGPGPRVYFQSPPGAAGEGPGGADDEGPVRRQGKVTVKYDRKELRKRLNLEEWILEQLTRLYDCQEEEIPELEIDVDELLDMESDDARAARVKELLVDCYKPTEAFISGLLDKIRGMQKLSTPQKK
UniProt P63151: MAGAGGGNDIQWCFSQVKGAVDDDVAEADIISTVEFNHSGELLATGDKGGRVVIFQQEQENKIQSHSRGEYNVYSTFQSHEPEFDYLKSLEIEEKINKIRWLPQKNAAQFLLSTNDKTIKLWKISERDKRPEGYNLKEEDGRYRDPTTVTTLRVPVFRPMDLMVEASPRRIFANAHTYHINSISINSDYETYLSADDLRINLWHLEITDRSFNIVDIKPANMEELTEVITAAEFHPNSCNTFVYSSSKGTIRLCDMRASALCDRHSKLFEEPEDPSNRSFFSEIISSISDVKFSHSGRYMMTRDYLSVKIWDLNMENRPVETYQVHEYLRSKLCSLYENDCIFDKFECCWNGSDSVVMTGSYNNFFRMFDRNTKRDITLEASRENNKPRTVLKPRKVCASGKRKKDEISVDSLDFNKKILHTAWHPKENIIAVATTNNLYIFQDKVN
UniProt Q13523: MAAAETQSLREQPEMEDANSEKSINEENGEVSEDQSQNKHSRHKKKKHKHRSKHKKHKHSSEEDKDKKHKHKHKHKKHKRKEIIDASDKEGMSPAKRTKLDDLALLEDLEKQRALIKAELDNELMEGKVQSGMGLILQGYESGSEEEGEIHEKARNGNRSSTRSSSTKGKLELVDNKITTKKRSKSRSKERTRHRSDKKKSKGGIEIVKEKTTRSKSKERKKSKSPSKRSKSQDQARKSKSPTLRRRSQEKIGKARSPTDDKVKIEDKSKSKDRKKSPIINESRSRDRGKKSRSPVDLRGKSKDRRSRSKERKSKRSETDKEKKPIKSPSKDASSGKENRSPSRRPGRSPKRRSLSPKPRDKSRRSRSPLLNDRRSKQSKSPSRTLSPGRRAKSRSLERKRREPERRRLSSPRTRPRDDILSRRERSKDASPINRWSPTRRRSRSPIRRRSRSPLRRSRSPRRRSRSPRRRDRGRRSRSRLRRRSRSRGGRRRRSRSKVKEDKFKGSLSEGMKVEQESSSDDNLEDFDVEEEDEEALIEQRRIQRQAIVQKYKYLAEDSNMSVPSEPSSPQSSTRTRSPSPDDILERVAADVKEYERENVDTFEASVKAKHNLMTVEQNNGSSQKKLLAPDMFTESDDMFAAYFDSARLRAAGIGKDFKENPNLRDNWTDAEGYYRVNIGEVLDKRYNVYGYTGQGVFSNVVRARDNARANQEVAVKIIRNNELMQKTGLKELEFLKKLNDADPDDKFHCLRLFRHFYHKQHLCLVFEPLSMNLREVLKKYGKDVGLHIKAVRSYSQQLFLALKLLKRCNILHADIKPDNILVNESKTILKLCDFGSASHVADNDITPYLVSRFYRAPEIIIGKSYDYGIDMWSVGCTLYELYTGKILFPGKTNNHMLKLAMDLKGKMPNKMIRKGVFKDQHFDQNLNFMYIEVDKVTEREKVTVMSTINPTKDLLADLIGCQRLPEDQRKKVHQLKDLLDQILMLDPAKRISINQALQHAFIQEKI
UniProt Q86WR7: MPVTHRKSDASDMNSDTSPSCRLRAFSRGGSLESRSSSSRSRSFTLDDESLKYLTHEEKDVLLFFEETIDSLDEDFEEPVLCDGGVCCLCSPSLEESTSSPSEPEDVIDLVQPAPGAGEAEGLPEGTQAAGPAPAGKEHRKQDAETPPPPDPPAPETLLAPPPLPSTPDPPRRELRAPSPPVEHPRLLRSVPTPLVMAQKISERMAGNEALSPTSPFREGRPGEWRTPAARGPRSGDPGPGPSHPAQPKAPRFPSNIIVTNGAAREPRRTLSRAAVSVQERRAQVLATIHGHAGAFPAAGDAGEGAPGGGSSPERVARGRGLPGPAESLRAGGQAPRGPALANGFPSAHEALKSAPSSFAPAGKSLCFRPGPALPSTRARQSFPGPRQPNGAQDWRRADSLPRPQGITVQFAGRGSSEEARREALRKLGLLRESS
UniProt P67775, whole entry, looked up: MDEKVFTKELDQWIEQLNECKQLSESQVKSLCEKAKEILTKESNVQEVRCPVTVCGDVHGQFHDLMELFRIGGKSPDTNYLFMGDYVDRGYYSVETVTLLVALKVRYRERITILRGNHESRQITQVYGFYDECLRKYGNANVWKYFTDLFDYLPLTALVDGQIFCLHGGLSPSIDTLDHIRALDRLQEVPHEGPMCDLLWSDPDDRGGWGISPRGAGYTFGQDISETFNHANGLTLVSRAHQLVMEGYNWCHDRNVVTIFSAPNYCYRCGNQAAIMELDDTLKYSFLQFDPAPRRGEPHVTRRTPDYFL
UniProt Q15173: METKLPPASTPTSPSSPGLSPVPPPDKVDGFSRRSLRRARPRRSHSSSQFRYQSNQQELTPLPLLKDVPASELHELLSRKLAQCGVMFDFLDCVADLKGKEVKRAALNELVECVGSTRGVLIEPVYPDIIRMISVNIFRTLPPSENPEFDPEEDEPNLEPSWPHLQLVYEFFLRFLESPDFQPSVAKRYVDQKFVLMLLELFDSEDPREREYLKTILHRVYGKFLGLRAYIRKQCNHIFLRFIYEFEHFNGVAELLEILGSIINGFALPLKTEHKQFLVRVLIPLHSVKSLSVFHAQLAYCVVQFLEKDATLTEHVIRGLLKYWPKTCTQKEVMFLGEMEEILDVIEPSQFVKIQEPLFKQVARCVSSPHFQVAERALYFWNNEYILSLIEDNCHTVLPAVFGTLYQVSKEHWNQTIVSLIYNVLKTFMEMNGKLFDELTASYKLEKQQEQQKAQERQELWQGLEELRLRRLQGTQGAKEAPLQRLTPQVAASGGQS
UniProt Q5H9R7: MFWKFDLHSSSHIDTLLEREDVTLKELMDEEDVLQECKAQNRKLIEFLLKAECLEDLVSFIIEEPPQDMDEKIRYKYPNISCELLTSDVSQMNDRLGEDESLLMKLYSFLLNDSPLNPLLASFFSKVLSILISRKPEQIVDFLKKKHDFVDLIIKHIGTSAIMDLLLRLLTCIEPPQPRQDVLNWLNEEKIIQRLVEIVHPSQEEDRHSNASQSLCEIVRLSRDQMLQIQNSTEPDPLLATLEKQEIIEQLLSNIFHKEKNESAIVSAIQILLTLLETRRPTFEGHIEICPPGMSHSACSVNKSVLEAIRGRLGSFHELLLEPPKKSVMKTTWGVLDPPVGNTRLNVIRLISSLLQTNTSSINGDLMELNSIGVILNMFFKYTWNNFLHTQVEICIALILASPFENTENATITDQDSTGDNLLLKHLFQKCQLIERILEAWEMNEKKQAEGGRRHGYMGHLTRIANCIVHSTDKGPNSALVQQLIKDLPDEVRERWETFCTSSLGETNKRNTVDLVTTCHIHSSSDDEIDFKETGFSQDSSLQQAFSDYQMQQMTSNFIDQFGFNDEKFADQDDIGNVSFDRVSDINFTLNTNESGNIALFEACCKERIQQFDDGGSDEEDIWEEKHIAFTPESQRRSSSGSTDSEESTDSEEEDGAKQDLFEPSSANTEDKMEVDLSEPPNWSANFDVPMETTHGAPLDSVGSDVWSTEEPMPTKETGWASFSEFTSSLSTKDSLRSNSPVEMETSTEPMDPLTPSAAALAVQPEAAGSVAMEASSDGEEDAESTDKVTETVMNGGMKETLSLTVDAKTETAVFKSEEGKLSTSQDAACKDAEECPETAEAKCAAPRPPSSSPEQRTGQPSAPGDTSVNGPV
UniProt O15355: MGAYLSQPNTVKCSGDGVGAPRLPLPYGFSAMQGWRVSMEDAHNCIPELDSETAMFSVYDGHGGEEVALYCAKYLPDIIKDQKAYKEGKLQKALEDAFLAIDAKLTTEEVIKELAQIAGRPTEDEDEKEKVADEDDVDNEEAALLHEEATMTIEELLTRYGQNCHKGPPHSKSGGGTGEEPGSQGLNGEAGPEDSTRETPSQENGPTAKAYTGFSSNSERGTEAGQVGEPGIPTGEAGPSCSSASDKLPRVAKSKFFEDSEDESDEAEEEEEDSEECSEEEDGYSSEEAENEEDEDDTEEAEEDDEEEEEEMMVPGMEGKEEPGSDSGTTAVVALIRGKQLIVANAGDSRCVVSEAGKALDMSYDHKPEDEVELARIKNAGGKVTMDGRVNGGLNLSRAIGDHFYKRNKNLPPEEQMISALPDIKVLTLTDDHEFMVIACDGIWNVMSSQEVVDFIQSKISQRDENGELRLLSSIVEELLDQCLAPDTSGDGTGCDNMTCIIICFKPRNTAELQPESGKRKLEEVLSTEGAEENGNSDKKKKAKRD
UniProt Q9NR22, whole entry, looked up: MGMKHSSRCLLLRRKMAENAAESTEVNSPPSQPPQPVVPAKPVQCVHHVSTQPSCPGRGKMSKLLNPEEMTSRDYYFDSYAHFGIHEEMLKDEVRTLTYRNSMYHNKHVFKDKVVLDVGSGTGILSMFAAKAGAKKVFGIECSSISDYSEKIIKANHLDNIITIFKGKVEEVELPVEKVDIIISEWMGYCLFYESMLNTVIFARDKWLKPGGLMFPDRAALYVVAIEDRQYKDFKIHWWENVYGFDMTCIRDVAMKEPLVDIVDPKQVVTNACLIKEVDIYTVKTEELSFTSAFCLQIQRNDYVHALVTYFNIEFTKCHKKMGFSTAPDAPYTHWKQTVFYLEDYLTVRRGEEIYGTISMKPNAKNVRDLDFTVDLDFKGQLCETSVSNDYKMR

[2] = compound: C/C(=N\NC(=O)C1=CC(=CC=C1)S(=O)(=O)N2CCOCC2)/C3=C(C=CC(=C3)Cl)O
Procedure, shortened: as §1

[3] = compound: C1=CC(=CC=C1C2=NC3=C(N2)C=C(C=C3)C(=O)N)OC4=CC=C(C=C4)Cl
Procedure, shortened: as §1

[4] = compound: C1=CC2=C(C=CC(=C2)/C=C\3/C(=O)NC(=NCC4=CC=CS4)S3)N=C1
Procedure, shortened: as §1

[5] = compound: C1=CC2=NC=CN=C2C=C1/C=C/3\C(=O)NC(=O)S3
Procedure, shortened: as §1

[6] = compound: C1=CC=C(C=C1)C2=NC(=C(N2)C3=CC=NC=C3)C4=CC(=C(C=C4)Cl)O
Procedure, shortened: as §1

[7] = compound: C1=CC=C2C(=C1)C3=NNC4=CC=CC(=C43)C2=O
Procedure, shortened: as §1

[8] = compound: C1CCN(C1)C(=O)NC2=CC=CC(=C2)NC3=NC=C(C(=N3)NCCC4=CN=CN4)Br
Procedure, shortened: as §1

[9] = compound: C1CN(CCC1(CC2=CC=C(C=C2)Cl)N)C3=NC=NC4=C3C=CN4
Procedure, shortened: as §1

[10] = compound: C1COCCN1CCN2C3=CC=CC=C3N=C2NC(=O)C4=CC(=CC=C4)[N+](=O)[O-] [IRAK-1-4 Inhibitor I]
Procedure, shortened: as §1

Measured: log2 fold change

PPP4R3A (UniProt Q6IN85)
inactive: [1] -0.001 | [2] 0.001 | [3] -0.021 | [4] 0.021 | [5] -0.031 | [6] -0.016 | [7] -0.011 | [8] -0.018 | [9] 0.008 | [10] 0.045

PRKRA (UniProt O75569)
inactive: [1] 0.016 | [2] -0.1 | [3] -0.061 | [4] -0.01 | [5] 0.08 | [6] 0.012 | [7] -0.012 | [8] -0.074 | [9] 0.018 | [10] 0.033

PRKCSH (UniProt K7ELL7)
inactive: [1] -0.01 | [2] -0.124 | [3] 0.004 | [4] -0.056 | [5] 0 | [6] -0.036 | [7] -0.061 | [8] -0.096 | [9] -0.038 | [10] -0.039

PPP1R14B (UniProt Q96C90)
inactive: [1] 0.017 | [2] -0.043 | [3] -0.004 | [4] 0.022 | [5] -0.093 | [6] -0.046 | [7] -0.012 | [8] 0.078 | [9] 0.011 | [10] -0.042

Two entries picked at random from those above:
PPP4R3A (UniProt Q6IN85)
inactive: [1] -0.001 | [2] 0.001 | [3] -0.021 | [4] 0.021 | [5] -0.031 | [6] -0.016 | [7] -0.011 | [8] -0.018 | [9] 0.008 | [10] 0.045

PRKRA (UniProt O75569)
inactive: [1] 0.016 | [2] -0.1 | [3] -0.061 | [4] -0.01 | [5] 0.08 | [6] 0.012 | [7] -0.012 | [8] -0.074 | [9] 0.018 | [10] 0.033

Next entries follow:

PPP2R2A isoform 2 (UniProt P63151)
inactive: [1] -0.003 | [2] -0.033 | [3] 0.023 | [4] 0.002 | [5] -0.006 | [6] -0.016 | [7] -0.007 | [8] 0.005 | [9] 0.003 | [10] 0.024

PRPF4B (UniProt Q13523)
inactive: [1] 0.024 | [2] -0.01 | [3] -0.046 | [4] 0.113 | [5] 0.012 | [6] 0.013 | [7] 0.083 | [8] 0.008 | [9] 0.03 | [10] -0.025

PROSER2 (UniProt Q86WR7)
inactive: [1] -0.028 | [2] -0.046 | [3] 0.042 | [4] 0.026 | [5] -0.012 | [6] -0.03 | [7] 0.028 | [8] -0.038 | [9] -0.042 | [10] 0.038

PPP2CA (UniProt P67775)
inactive: [1] -0.088 | [2] 0.134 | [3] -0.057 | [4] -0.045 | [5] -0.007 | [6] 0.064 | [7] 0.016 | [8] 0.106 | [9] -0.027 | [10] -0.041

PREPL (UniProt Q4J6C6)
inactive: [1] -0.002 | [2] -0.054 | [3] -0.002 | [4] 0 | [5] -0.031 | [6] -0.005 | [7] -0.001 | [8] -0.025 | [9] 0.018 | [10] -0.024

PPP2R5B (UniProt Q15173)
inactive: [1] -0.026 | [2] 0.038 | [3] 0.056 | [4] -0.106 | [5] 0.123 | [6] 0 | [7] 0.052 | [8] -0.051 | [9] -0.042 | [10] 0.016

PPP3CA isoform 2 (UniProt Q08209)
inactive: [1] -0.005 | [2] -0.037 | [3] 0.045 | [4] -0.036 | [5] -0.014 | [6] 0.014 | [7] -0.006 | [8] 0.082 | [9] -0.026 | [10] -0.01

PPP6R3 isoform 5 (UniProt Q5H9R7)
inactive: [1] -0.013 | [2] -0.007 | [3] 0.006 | [4] 0.021 | [5] 0.001 | [6] 0.014 | [7] 0 | [8] -0.01 | [9] -0.015 | [10] 0.016

PRC1 (UniProt O43663)
inactive: [1] 0.026 | [2] 0.027 | [3] 0.013 | [4] -0.026 | [5] -0.004 | [6] 0.059 | [7] -0.054 | [8] -0.011 | [9] 0.126 | [10] 0.008

PPM1G (UniProt O15355)
inactive: [1] -0.012 | [2] -0.011 | [3] 0.017 | [4] 0.02 | [5] 0 | [6] 0.003 | [7] 0.036 | [8] 0.013 | [9] -0.013 | [10] -0.016

PRMT8 (UniProt Q9NR22)
inactive: [1] 0.01 | [2] -0.003 | [3] 0.009 | [4] -0.046 | [5] -0.015 | [6] 0.024 | [7] -0.031 | [8] -0.012 | [9] 0.013 | [10] 0.024

Reference: the supplement of paper PMC10849652
